The list does not hold the whole screen: it gathers tests that were run many times, whatever their T/C, doses with no T/C, and many T/C values between a quarter and a half above the control. Other doses and runs of a compound stand elsewhere. T/C: endpoint of the treated group in % of that of the vehicle group. Some entries give survivors of the animals treated and no T/C: the source holds a T/C of zero for them, seemingly a mark for toxic or unscored doses. Some survivor counts are full or nearly so, which does not show that the dose was tolerated: survival well below the control is almost never listed, so the zero probably covers shortened survival too. Survivors were counted at the toxicity check, usually on the fifth day, unless a day is given; later deaths do not show. Schedule codes are those of the source, read here as Q, the interval in days (D) or hours (H), X, the number of doses. Some entries hold several experiments; their values stand side by side, smallest first. For survival time, the PubChem record calls one and a half times the control and up active, and a quarter to a half above the control has no call in these data; cut-offs in other NCI protocols can differ. Some T/C values carry the count of animals alive at the toxicity check (mostly the fifth day); where none is given, no animal had died by that day. Signs of the kind (2×) give the number of equal values in this list.
System: AKR/Lw mice, AKR lymphoma ip, median survival T/C
Assay: NCI In Vivo Anticancer Drug Screen. Data for tumor model Lymphoma AKR (Transplanted) (intraperitoneal) in AKR/Lw mice
Conditions: T/C endpoint: median survival time, higher T/C = longer survival
Experimental: The antitumor activity of compounds was measured in mice bearing transplantable tumors. Survival or tumor size were measured and the results are expressed as the measurement made in the treated group (T) divided by the measurement made in the vehicle treated control group (C). The tumor model used in this assay is Lymphoma AKR (Transplanted) (intraperitoneal) in AKR/Lw mice

[1] = dose: 7.5 mg/kg/injection, schedule: Q01DX009 (ip), vehicle: saline
[2] = dose: 15.0 mg/kg/injection, schedule: Q01DX009 (ip), vehicle: saline
[3] = dose: 20.0 mg/kg/injection, schedule: Q01DX009 (ip), vehicle: saline
[4] = dose: 25.0 mg/kg/injection, schedule: Q04DX003 (ip), vehicle: saline
[5] = dose: 100.0 mg/kg/injection, schedule: Q04DX003 (ip), vehicle: saline
[6] = dose: 125.0 mg/kg/injection, schedule: Q07DX003 (ip), vehicle: saline
[7] = dose: 150.0 mg/kg/injection, schedule: Q01DX001 (ip), vehicle: saline
[8] = dose: 300.0 mg/kg/injection, schedule: Q01DX001 (ip), vehicle: saline
[9] = dose: 500.0 mg/kg/injection, schedule: Q01DX001 (ip), vehicle: saline

O=P1(NCCCl)OCCCN1CCCl (centres undefined)
T/C [1]: 142 % of control | survivor count [1]: 10 of 10 | T/C [2]: 105, 115, 134 % of control | survivor count [2]: 10 of 10 | T/C [3]: 126 and 141 % of control | survivor count [3]: 10 of 10 | T/C (dose: 25.0 mg/kg/injection, schedule: Q01DX009 (ip), vehicle: saline): 129 % of control | T/C [4]: 110, 115, 126 % of control | survivor count [4]: 10 of 10 | T/C (dose: 25.0 mg/kg/injection, schedule: Q07DX003 (ip), vehicle: saline): 126, 128, 139 % of control | T/C (dose: 30.0 mg/kg/injection, schedule: Q01DX009 (ip), vehicle: saline, evaluated on day 45): 123 % of control | T/C (dose: 30.0 mg/kg/injection, schedule: Q01DX009 (ip), vehicle: saline, evaluated on day 60): 118 and 150 % of control | survivor count (dose: 30.0 mg/kg/injection, schedule: Q01DX009 (ip), vehicle: saline): 9 of 10 and 10 of 10 | survivor count (dose: 40.0 mg/kg/injection, schedule: Q01DX009 (ip), vehicle: saline): 9 of 10 | survivor count (dose: 45.0 mg/kg/injection, schedule: Q01DX009 (ip), vehicle: saline): 9 of 10 and 5 of 5 | T/C (dose: 50.0 mg/kg/injection, schedule: Q01DX001 (ip), vehicle: saline): 87, 120, 127, 154 % of control | T/C (dose: 50.0 mg/kg/injection, schedule: Q01DX009 (ip), vehicle: saline): 126 % of control | T/C (dose: 50.0 mg/kg/injection, schedule: Q04DX003 (ip), vehicle: saline): 105, 111, 116, 128, 132 % of control | T/C (dose: 50.0 mg/kg/injection, schedule: Q07DX003 (ip), vehicle: saline): 144 % of control | T/C (dose: 60.0 mg/kg/injection, schedule: Q01DX009 (ip), vehicle: saline): 126 % of control | T/C (dose: 75.0 mg/kg/injection, schedule: Q01DX001 (ip), vehicle: saline): 131, 134, 136 % of control | T/C (dose: 75.0 mg/kg/injection, schedule: Q04DX003 (ip), vehicle: saline): 135 % of control | survivor count (dose: 80.0 mg/kg/injection, schedule: Q01DX009 (ip), vehicle: saline): 10 of 10 | T/C (dose: 100.0 mg/kg/injection, schedule: Q01DX001 (ip), vehicle: saline): 95 [9 of 10 alive], 115, 130, 147, 168 % of control | T/C (dose: 100.0 mg/kg/injection, schedule: Q01DX009 (ip), vehicle: saline): 126 % of control | T/C [5]: 117, 131, 141 % of control | survivor count [5]: 9 of 10 and 10 of 10 | survivor count (dose: 100.0 mg/kg/injection, schedule: Q07DX003 (ip), vehicle: saline): 10 of 10 | survivor count (dose: 125.0 mg/kg/injection, schedule: Q04DX003 (ip), vehicle: saline): 10 of 10 | T/C [6]: 139 % of control | survivor count [6]: 9 of 10 | T/C [7]: 115, 140, 145, 153, 169, 190 % of control | survivor count [7]: 10 of 10 | survivor count (dose: 150.0 mg/kg/injection, schedule: Q04DX003 (ip), vehicle: saline): 10 of 10 | survivor count (dose: 160.0 mg/kg/injection, schedule: Q01DX009 (ip), vehicle: saline): 9 of 10 | T/C (dose: 200.0 mg/kg/injection, schedule: Q01DX001 (ip), vehicle: saline): 95, 148, 180, 186 [9 of 10 alive], 210 % of control | T/C (dose: 200.0 mg/kg/injection, schedule: Q04DX003 (ip), vehicle: saline): 144 % of control | T/C (dose: 250.0 mg/kg/injection, schedule: Q01DX001 (ip), vehicle: saline): 125 % of control | survivor count (dose: 250.0 mg/kg/injection, schedule: Q04DX003 (ip), vehicle: saline): 10 of 10 | T/C [8]: 147, 156 (2×), 160 % of control | survivor count [8]: 10 of 10 | survivor count (dose: 400.0 mg/kg/injection, schedule: Q01DX001 (ip), vehicle: saline): 5 of 10 and 10 of 10 | T/C [9]: 125 % of control | survivor count [9]: 8 of 10 | survivor count (dose: 500.0 mg/kg/injection, schedule: Q01DX001 (sc), vehicle: steroid suspending solution): 9 of 10 | T/C (dose: 500.0 mg/kg/injection, schedule: Q04DX003 (ip), vehicle: saline, evaluated on day 45): 128 % of control | T/C (dose: 500.0 mg/kg/injection, schedule: Q04DX003 (ip), vehicle: saline, evaluated on day 60): 88 % of control [9 of 10 alive] | survivor count (dose: 500.0 mg/kg/injection, schedule: Q04DX003 (ip), vehicle: saline): 9 of 10 and 10 of 10 | survivor count (dose: 600.0 mg/kg/injection, schedule: Q01DX001 (ip), vehicle: saline): 0 of 10 | survivor count (dose: 700.0 mg/kg/injection, schedule: Q01DX001 (ip), vehicle: saline): 6 of 10 | survivor count (dose: 800.0 mg/kg/injection, schedule: Q01DX001 (ip), vehicle: saline): 3 of 10

Nc1ccc(OCc2ccc(S(=O)(=O)F)c(Cl)c2)c(Cl)c1
survivor count (dose: 75.0 mg/kg/injection, schedule: Q01DX009 (ip), vehicle: Klucel (hydroxypropylcellulose) (HPC)): 10 of 10 | survivor count (dose: 300.0 mg/kg/injection, schedule: Q01DX009 (ip), vehicle: Klucel (hydroxypropylcellulose) (HPC)): 8 of 10 | survivor count (dose: 400.0 mg/kg/injection, schedule: Q01DX001 (ip), vehicle: Klucel (hydroxypropylcellulose) (HPC)): 9 of 10

Reference: PubChem BioAssay AID190 (DTP/NCI, 2004)
